For one molecule, IC50 results are on record in US20190151289A1, “Identification of Small Molecule Inhibitors of Jumonji AT-Rich Interactive Domain 1A (JARID1A) Histone Demethylase” (YALE UNIVERSITY, priority 2016, published 2019).

By UniProt entry, the sequences of proteins in these tests, tags left out.
UniProt P29375, whole entry: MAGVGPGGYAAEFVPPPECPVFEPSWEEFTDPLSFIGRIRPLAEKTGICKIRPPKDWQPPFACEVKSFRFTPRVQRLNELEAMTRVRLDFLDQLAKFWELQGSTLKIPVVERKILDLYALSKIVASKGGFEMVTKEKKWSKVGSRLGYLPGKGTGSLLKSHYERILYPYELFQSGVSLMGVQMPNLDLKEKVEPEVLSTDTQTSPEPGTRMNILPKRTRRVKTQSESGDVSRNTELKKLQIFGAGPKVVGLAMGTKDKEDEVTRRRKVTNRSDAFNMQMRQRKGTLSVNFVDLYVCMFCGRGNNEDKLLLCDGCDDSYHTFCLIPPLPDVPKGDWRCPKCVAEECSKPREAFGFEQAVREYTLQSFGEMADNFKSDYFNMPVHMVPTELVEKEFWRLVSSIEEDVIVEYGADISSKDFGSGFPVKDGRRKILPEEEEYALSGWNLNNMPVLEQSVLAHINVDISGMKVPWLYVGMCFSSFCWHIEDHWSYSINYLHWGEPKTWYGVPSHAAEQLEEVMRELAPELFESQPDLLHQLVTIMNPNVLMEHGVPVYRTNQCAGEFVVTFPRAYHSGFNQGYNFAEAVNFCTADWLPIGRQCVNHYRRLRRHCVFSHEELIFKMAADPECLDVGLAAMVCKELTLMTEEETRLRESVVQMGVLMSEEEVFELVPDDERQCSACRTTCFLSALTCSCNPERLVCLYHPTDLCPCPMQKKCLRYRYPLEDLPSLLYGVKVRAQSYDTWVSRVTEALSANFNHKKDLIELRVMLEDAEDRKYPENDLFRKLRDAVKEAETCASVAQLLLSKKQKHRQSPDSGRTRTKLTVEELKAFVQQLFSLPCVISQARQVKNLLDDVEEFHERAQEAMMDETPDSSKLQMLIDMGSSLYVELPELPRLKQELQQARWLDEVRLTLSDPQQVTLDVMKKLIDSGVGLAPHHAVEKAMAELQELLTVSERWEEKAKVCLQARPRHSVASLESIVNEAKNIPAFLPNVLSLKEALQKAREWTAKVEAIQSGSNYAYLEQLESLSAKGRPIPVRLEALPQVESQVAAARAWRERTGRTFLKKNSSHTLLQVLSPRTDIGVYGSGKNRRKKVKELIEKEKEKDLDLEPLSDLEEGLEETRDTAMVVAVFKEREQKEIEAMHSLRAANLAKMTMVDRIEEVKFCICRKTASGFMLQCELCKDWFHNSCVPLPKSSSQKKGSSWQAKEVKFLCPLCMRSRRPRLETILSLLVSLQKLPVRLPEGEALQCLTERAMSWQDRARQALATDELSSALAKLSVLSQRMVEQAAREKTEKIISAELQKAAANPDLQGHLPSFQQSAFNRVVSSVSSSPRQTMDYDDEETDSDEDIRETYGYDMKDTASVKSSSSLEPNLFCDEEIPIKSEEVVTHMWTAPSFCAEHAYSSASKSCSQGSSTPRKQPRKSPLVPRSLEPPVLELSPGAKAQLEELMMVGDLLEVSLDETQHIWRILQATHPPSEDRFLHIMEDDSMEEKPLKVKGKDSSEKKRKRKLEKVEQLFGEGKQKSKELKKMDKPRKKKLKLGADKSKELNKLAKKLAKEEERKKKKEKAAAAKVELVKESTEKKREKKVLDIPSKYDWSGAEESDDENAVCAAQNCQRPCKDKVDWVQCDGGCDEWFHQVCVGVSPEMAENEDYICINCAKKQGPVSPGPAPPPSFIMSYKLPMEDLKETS

SMILES strings stand for the structures. pIC50: −log10 of the molar value. Structures were worked out from names or drawings and are uncertain.

The target in the assay is full-length FLAG-KDM5A (Homo sapiens, UniProt P29375). The experiment in a line: AlphaScreen KDM5A demethylation assay (bio-H3K4me3 peptide). The following applies: read-out: KDM5A IC50; inhibitors found by high throughput screening. On the technique in general: Bead proximity is the source of the signal in Alpha formats.

Broadly, the pIC50 is the negative decadic logarithm of the IC50, by convention in mol/L. Regarding `Sc1nnc(-c2ccncc2)n1-c1ccc2c(c1)OCCO2`, the pIC50 is 6.44.
